Source: article PMC6530996, “HspB1 phosphorylation regulates its intramolecular dynamics and mechanosensitive molecular chaperone interaction with filamin C” (Science Advances, 2019)
No constants are given. Whether binding was seen depends on the method and setting. Tags and fused reporters may be left off the sequences shown.

Protein sequences, listed by entry. Tags and fused reporters are not part of them. Residues count along the entry.
UniProt P04792, residues 84-171: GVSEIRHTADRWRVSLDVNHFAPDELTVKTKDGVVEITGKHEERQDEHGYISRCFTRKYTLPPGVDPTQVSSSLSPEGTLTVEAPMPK

Molecular target: T1, human FLNC domains 18 to 21 (FLNC_(d18–21)), EEF-tagged (human) (UniProt Q14315)
T1 sequence: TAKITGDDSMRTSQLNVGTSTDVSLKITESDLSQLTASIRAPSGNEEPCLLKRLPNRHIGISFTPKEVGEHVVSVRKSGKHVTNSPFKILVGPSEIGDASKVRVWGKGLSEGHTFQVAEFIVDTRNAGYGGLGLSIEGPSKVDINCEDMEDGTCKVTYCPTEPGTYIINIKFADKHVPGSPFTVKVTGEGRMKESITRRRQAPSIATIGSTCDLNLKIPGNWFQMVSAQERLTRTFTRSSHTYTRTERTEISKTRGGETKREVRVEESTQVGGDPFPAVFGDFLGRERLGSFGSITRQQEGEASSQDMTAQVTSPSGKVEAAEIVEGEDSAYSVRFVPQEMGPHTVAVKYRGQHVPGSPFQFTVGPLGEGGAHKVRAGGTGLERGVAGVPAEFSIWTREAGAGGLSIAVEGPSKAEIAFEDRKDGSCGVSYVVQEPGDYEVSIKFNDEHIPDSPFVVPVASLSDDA
Test: native MS; native IM-MS of mixtures of FLNC_(d18–21) or FLNC_(d18–21,ΔI) with HspB1_(84–171), HspB1 peptides or an excess of control peptides; 200 mM ammonium acetate pH 6.9; both purified

Substance | binding
peptide mimicking HspB1 C-terminal residues 177 to 186 (from UniProt P04792 177-186) | no binding (tested: an excess of peptide)
human HspB1 α-crystallin domain, HspB1_(84–171) (from UniProt P04792 84-171) (domain or fragment) | no binding
